Assay results reported in PubChem BioAssay AID652054 (National Center for Advancing Translational Sciences (NCATS), 2013).
Where “and” joins values, the source holds several entries; their conditions need not be identical. Equal entries are not always repeated. About 9,100 (2.5%) of roughly 360,000 compounds were called active. The inconclusive results got no clear call from the source; some entries with a clear call stand among them for comparison. Cut-off read from the data, not from the text of the source: active = max response below about -50%; inconclusive = no clear call, values can overlap the other calls; inactive = above that.

Amino acid sequences for entries named in this document (tags omitted).
UniProt P35462, whole entry, looked up: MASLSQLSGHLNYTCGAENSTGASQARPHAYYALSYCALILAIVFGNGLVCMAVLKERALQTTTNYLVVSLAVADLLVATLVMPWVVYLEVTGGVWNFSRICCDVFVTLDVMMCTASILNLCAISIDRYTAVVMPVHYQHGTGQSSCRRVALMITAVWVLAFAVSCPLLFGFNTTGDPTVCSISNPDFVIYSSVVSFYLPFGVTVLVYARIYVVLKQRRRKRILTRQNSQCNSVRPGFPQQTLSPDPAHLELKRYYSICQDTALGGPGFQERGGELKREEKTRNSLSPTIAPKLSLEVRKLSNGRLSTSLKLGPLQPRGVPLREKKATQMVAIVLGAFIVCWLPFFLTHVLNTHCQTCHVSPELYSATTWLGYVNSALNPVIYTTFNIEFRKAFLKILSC

molecular target: D(3) dopamine receptor (Homo sapiens) (UniProt P35462); assay: qHTS of D3 Dopamine Receptor Antagonist: qHTS; settings: D3R cells, DiscoveRx beta-arrestin luminescence, antagonist mode; stronger effect = lower value
In short: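 Cells expressing the human receptor were seeded at 1500 cells/well, incubated overnight at 37 degrees C in 5% CO2, then exposed to library compounds with dopamine controls for 90 minutes at 37 degrees C before luminescent detection.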
% is set by controls: 0 for no effect and ±100 for the full control effect.

SMILES | max response, negative = inhibition
Cc1ccc(-c2ccc(/C=N/NC(=S)Nc3ccccc3)o2)cc1[N+](=O)[O-] | inconclusive: -30.1%
NC(=S)N/N=C/c1ccc(-c2cc(Cl)c(Cl)cc2Cl)o1 | inconclusive: -37.3%
CO/N=C(\C(=O)N[C@@H]1C(=O)N2C(C(=O)O)=C(COC(N)=O)CS[C@H]12)c1ccco1 | inconclusive: -30%
O=C(O)c1ccc(-n2nnnc2SCc2ccccc2)cc1 | inconclusive: -40%
COc1ccc(CN2CCN(c3ccccn3)CC2)c(OC)c1 | inconclusive: -49.4%
COP(=O)(OC)c1nc(-c2cccc3ccccc23)oc1NCc1ccccc1 | inactive: 2.53%
Cc1cccc(C2(c3cccc(C)c3)CC2C(=O)Nc2ccc([N+](=O)[O-])cc2O)c1 (stereo unspecified) | active: -69.5%
Cc1nc(Nc2ccc(S(=O)(=O)N3CCCC3)cc2)c2nnn(Cc3ccccc3)c2n1 | active: -69.4%
CC1CCCN(C(=O)COC(=O)CNS(=O)(=O)c2ccc3ccccc3c2)C1 (stereo unspecified) | inconclusive: -30.3%
Cc1nn2cc(-c3ccc(-c4ccccc4)cc3)nc2s1 | inconclusive: -41.3%
O=C(O)c1cc(NS(=O)(=O)c2ccc(N3CCOCC3)c([N+](=O)[O-])c2)cc(C(=O)O)c1 | inconclusive: -44.5%
CCOC(=O)c1c(S(=O)(=O)NCC2CCN(CCc3cccs3)CC2)c(C)n(C)c1C | active: -83.4%
OCc1ccc(-c2cccc3nccn23)cc1 | inactive: 0%
CCN(CCO)Cc1cn[nH]c1-c1ccc(C)c(C)c1 | active: -66.3%
C/C(=N\Oc1cccc(F)n1)c1ccc(Cl)cc1Cl | inconclusive: -38.5%
COc1ccc(NC(=O)CN(C)C(=O)/C=C/c2cn(-c3ccccc3)nc2-c2ccc(C)cc2)cc1 | active: -55.2%
COc1cc(OC)c(OC)cc1CN1CCCC(C(=O)c2ccc3c(c2)OCO3)C1 (stereo unspecified) | active: -93.2%
O=C(c1ccc(OC2CCN(C/C=C/c3ccccc3)CC2)cc1)N1CCCCC1 | inconclusive: -45.8%
COc1ccc(-n2nc([N+](=O)[O-])c(=NCCc3cccc(C)c3)n2O)cc1 | inconclusive: -32.3%
O=C(Cn1nc(-c2ccc(Cl)cc2)ccc1=O)N1CCN(c2ccccc2)CC1 | inconclusive: -42%
CC(=O)NCCNC(=O)C1Cc2c(-c3ccccc3)ccnc2O1 (stereo unspecified) | inconclusive: -48%
CC(CCN1CCC(CN2C(=S)NCC2Cc2ccccc2)CC1)c1ccccc1 (stereo unspecified) | active: -62.8%

SMILES | max response, negative = inhibition
CC(C)(C)C(=O)Nc1nc(-c2ccc3c(c2)OCO3)cs1 | inactive: -3.82%
Fc1cccc(F)c1C(Nc1nncs1)Nc1nncs1 | inconclusive: -32.9%
CC(C)c1ccc(NC(=O)CSc2nc(-c3ccccc3F)nc3nc[nH]c23)cc1 | inconclusive: -36.4%
CC1(C)CC(=O)c2sc(NS(=O)(=O)c3ccccc3)nc2C1 | inconclusive: -30.7%
C=CCOc1ccccc1/C=c1\sc2nc(-c3oc4ccccc4c3C)nn2c1=O | inconclusive: -43.2%
C(=C\c1ccccc1)/CN1CCN(C(c2cccc3ccccc23)c2nnnn2Cc2ccccc2)CC1 (stereo unspecified) | inconclusive: -40.8%
CC(C)(C)c1ccc(C(=O)NCC(=O)OCC(=O)Nc2ccccc2[N+](=O)[O-])cc1 | inconclusive: -32.1%
CCNC(=O)C1(C)CCN1C(=O)CCc1cccc(Cl)c1 (stereo unspecified) | inconclusive: -38.3%
O=C(NC1CCN(Cc2ccccc2)CC1)c1ccc(Oc2cc(Cl)cc(Cl)c2)o1 | active: -87.6%
COc1ccc(NC(=O)c2ccc3ccccc3n2)cc1S(=O)(=O)Nc1ccccc1Cl | inactive: -19.7%
O=C(c1cc2cc([N+](=O)[O-])ccc2oc1=O)n1cccn1 | inconclusive: -46%
C=CC(COCc1ccccc1)N(Cc1ccccc1)S(=O)(=O)c1ccccc1Br (stereo unspecified) | inconclusive: -37%
COC(=O)C1=C(C(=O)OC)SC2(S1)C(C(=O)OC)=C(C(=O)OC)SC1=C2c2cc(C)cc(C)c2NC1(C)C | active: -77.9%
COC(=O)c1c(N2C(=O)[C@H]3[C@@H](C2=O)[C@]2(C(=O)Nc4c(C)cc(C)cc42)N2CCC[C@@H]32)sc(C)c1C | inconclusive: -31.2%
Cc1ccc2cccc(NS(=O)(=O)c3ccccc3)c2n1 | inconclusive: -40.3%
O=C1C(=O)N(CNc2ccccn2)c2ccccc21 | inconclusive: -33.8%
CCN(CC)C(=O)C1=C(C)N(CCCN2CCCC2=O)C(=O)C(CC(=O)NCC2CCCCC2)C1 (stereo unspecified) | inactive: 4.58%
Cc1ccc(S(=O)(=O)N(C)C)cc1NC(=O)COC(=O)/C(=C/c1ccc(F)cc1)c1cccs1 | inconclusive: -34.9%
COc1cc2c(C#CCCCO)c(-c3ccc(C#N)cc3)oc(=O)c2cc1OC | inactive: 23.4%
COC(=O)Nc1nc(C)c(C(=O)c2ccccc2)s1 | inconclusive: -32.9%
O=C(CN1CCN(c2ccccn2)CC1)NCCc1ccccc1 | inactive: -2.86%
CCC(NC(=O)CSc1nnnn1C1CC1)c1ccc(Br)cc1 (stereo unspecified) | inconclusive: -34.7%

SMILES | max response, negative = inhibition
OCCC1CN(CC2CC2)CCN1Cc1ccc(F)c(F)c1 (stereo unspecified) | inconclusive: -50%
O=C(NCc1ccccc1)c1ccc(-c2ccccc2C(F)(F)F)o1 | active: -55.8%
O=C(N/N=C/c1ccc2cccnc2c1)c1ccco1 | inconclusive: -34.5%
CS(=O)(=O)N1CCN(C(=O)Cc2ccc(Br)cc2)CC1 | inactive: 4.26%
CC(CCc1ccccc1)NC(=O)c1cccc([N+](=O)[O-])c1 (stereo unspecified) | inactive: -22.5%
CC(C(Sc1ccccc1N)c1ccccc1)[N+](=O)[O-] (stereo unspecified) | inconclusive: -31.6%
CC(=O)c1ccc(NC(=O)C(C)N(C)CC(=O)Nc2cccc(F)c2)cc1 (stereo unspecified) | inactive: -18.2%
CSc1ccc(CN2CCC(Cc3ccccc3)CC2)cc1 | active: -55.9%
Cc1ccccc1N(C(=O)c1snc(C(N)=O)c1N)C(C(=O)NCc1ccccc1)c1ccc(O)cc1 (stereo unspecified) | inactive: 7.77%
CCC(=O)N(Cc1ccco1)c1nc(-c2ccc(OC)cc2)cs1 | inactive: 1.32%
COc1cccc(NC(=O)CCN2CCN(c3ccccc3F)CC2)c1 | inconclusive: -48.8%
Clc1ccc(C2=Nn3c(nnc3-c3cc(-c4ccccc4)n[nH]3)SC2)cc1 | inconclusive: -37.8%
Cc1cc(OCC(=O)Nc2cccnc2)c2c(C)cc(=O)oc2c1 | inactive: 15.7%
O=C(NCCc1ccccc1)c1cnc(Cl)c(Cl)c1 | inactive: -0.969%
CC1Sc2ccc(S(=O)(=O)N3CCC(C(=O)Nc4ccc(Cl)cc4)CC3)cc2NC1=O (stereo unspecified) | inactive: -7.43%
NNC(=O)Cc1cccc2ccc(Cl)cc12 | inconclusive: -30.1%
COc1cc2c(cc1OC)-c1cc(NC3CCCC3)nc(=O)n1CC2 | inactive: 8.58%
CC(=C1C2C=CC1C1C(=O)NC(=O)C21)c1ccccc1 (stereo unspecified) | inconclusive: -32.1%
O=C(C1CCCCN1S(=O)(=O)c1ccccc1)N1CCN(Cc2ccccc2)CC1 (stereo unspecified) | inconclusive: -35.5%
C(#Cc1ccccc1)CN1CCN(c2ccccn2)CC1 | inactive: -16% and inconclusive: -46.1%
CC(C(=O)NCC1(c2ccccc2)CCCC1)N1CCCC1 (stereo unspecified) | inactive: -16.8%
O=S(=O)(Cc1nc2ccccc2s1)c1ccccc1 | inconclusive: -39.5%

Retrieved one by one from the entries so far, 3 records:
SMILES | max response, negative = inhibition
COc1cc2c(cc1OC)-c1cc(NC3CCCC3)nc(=O)n1CC2 | inactive: 8.58%
COc1cccc(NC(=O)CCN2CCN(c3ccccc3F)CC2)c1 | inconclusive: -48.8%
O=C(C1CCCCN1S(=O)(=O)c1ccccc1)N1CCN(Cc2ccccc2)CC1 (stereo unspecified) | inconclusive: -35.5%

(continued)

SMILES | max response, negative = inhibition
NC(=S)N/N=C/c1c[nH]c2ccc(OCc3ccccc3)cc12 | inactive: 0.882%
CCCCCNC(=O)CCn1c(=O)oc2ccccc21 | inconclusive: -45.3%
NCCNC(=O)c1ncsc1-c1cccc(F)c1 | active: -52.4%
COc1ccc(CN2CCC(C(=O)NC(C)c3cccc4ccccc34)CC2)cc1 (stereo unspecified) | inconclusive: -35.5%
CC(C)C[C@H](NC(=O)N1CC(=O)Nc2ccccc21)C(=O)N[C@H](Cc1c[nH]c2ccccc12)C(=O)O | inconclusive: -40.4%
Cc1ccc(N2C(=O)CC(SCC(=O)Nc3ccc(S(N)(=O)=O)cc3)C2=O)cc1 (stereo unspecified) | inactive: 2.01%
N#C/C(=C/c1cn(-c2ccccc2)nc1-c1cccc(OCc2ccc(F)cc2)c1)C(=O)NCCCn1ccnc1 | inconclusive: -48.9%
CCCCC(=O)Nc1nc2ccc3nc(C)sc3c2s1 | active: -79.6%
O=S(=O)(c1ccc(Cl)s1)N1CCN(c2ncccn2)CC1 | inactive: 7.09%
CCOc1ccc(CCN2C(=S)N([C@@H](CC(C)C)CN3CCCC3CN3C(=S)NC[C@@H]3Cc3ccc(O)cc3)C[C@@H]2CC(C)C)cc1 (stereo partly specified) | inactive: -29.6%
COc1ccccc1CNC(=O)CCCn1nc(C)c2c(C)n(-c3ccccc3)nc2c1=O | inactive: 17.3%
c1ccc(Nc2nc(-c3ccncc3)cs2)cc1 | inconclusive: -39.2%
CC(=O)NCc1ccc(C(=O)CSc2nnc(-c3ccncc3)n2Cc2ccccc2)o1 | inconclusive: -30.4%
COc1ccccc1C(=O)NCCc1c(C)[nH]c2c(C)ccc(F)c12 | inactive: -14.3%
O=C1CC[C@@H]2CC3(C[C@@H]4CCN1[C@H]24)Nc1cc(Cl)ccc1NC3=NC1CCCCC1 (stereo partly specified) | active: -62.7%
CCCCCCCN1CCC(=O)N([C@H](CO)c2ccccc2)CC1 | inconclusive: -38.7%
CCN1CCN(S(=O)(=O)c2cc(OCC(=O)NC3CCCCC3)c(C)cc2Cl)CC1 | active: -70.5%
Cc1ccccc1S(=O)(=O)N1C(c2ccc(Cl)cc2)CC=C(C(=O)O)C1c1cccc(Cl)c1 (stereo unspecified) | inactive: -23.4%
CN(C(=O)COC(=O)c1ccccc1NCCO)C1CCS(=O)(=O)C1 (stereo unspecified) | inconclusive: -39.5%
c1cc2ccc3ccc(CN4CCOCC4)c4ccc(c1)c2c34 | inconclusive: -40.3%
